The list shows a part of the results.

By UniProt entry, the sequences of proteins in these tests, tags left out.
UniProt Q0JBA9, entry or part of it: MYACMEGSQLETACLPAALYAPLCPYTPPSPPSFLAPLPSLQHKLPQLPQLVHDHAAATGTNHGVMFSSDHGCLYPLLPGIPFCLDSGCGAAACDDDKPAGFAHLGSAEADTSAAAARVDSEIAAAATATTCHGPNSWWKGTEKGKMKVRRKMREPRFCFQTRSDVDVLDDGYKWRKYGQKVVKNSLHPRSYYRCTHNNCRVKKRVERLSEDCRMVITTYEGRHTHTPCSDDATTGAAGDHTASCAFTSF

The assay concerns the target OsWRKY34 (Oryza sativa, UniProt Q0JBA9 1-250). The assay is described as follows: protein-binding microarray (RPBM); PBS, 2% BSA, 51.3 ng/ul salmon testes DNA, 50 uM zinc acetate, 200 nM TF, 25 C, 1 h; high values mean tight binding. The following applies: protein: recombinant; tags: N-terminal polyhistidine and DsRed monomer fusion (pET32a); label: CyDye5-dUTP incorporated in the synthesized complementary strand; 3' TTTTT single-stranded linker to array surface; dsDNA, one strand shown. In outline: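 A custom Agilent array was converted to double-stranded form by primer extension with Cy5-dUTP and blocked with 2% BSA. Protein at 200 nM in PBS with 2% BSA, salmon testes DNA and 50 µM zinc acetate was applied for 1 h at 25 °C, followed by washing. The proteins were polyhistidine–DsRed N-terminal fusions of transcription factors, expressed in E. coli BL21-CodonPlus and Ni–NTA-purified. The binding signal is per-feature fluorescence intensity (arbitrary units) from an Axon 4000B scanner.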
“ACAATATTATATCCAACGTCAACACCAGACTATATCAATGCGGAGTCACCTAGTGCAG”: the binding signal is 9010 fluorescence intensity (a.u.). The value for “ACTCTCTCGTTCTCTCTCCCAGGCTCCCAGCCGGCGTTGCCGGAGTCACCTAGTGCAG” was 12100 fluorescence intensity (a.u.). With “TAAATTACACGTTCAACTTTATTGTTTTTACTATTTTATACGGAGTCACCTAGTGCAG”, the binding signal was 9420 fluorescence intensity (a.u.).

For the sequence “GTTTACTCTTTATTCCCATGTTCTGGATTTTTTTTCACCTCGGAGTCACCTAGTGCAG”, the binding signal was 13300 fluorescence intensity (a.u.). The value for “GGCCAGAACGAATCGTATCCTTTTTTTTTTCTGTTCCTTTCGGAGTCACCTAGTGCAG” was 9160 fluorescence intensity (a.u.); that for “GCTGGCCGGCCTCCCCGCTCGCCGCCGCCGCCGCCGCATGCGGAGTCACCTAGTGCAG” was 8180 fluorescence intensity (a.u.); that for “TTTTCCTCCGTTCTCCGCCCACGCGCCGTCATCGCTGCCCCGGAGTCACCTAGTGCAG” was 9020 fluorescence intensity (a.u.).

For the sequence “CCGTACTCCGCCCTCGCTTCCCTATTCCCTTTTTCCTTTTCGGAGTCACCTAGTGCAG”, the binding signal was 9810 fluorescence intensity (a.u.). The value for “CACCACCACCCGGGGCCCATGCTGTACGCGGCGGCGCCCGCGGAGTCACCTAGTGCAG” was 9440 fluorescence intensity (a.u.). The value for “ATATTGTTTTTTTTTCTCTCATCTTGCATACGCATGCATGCGGAGTCACCTAGTGCAG” was 11200 fluorescence intensity (a.u.); that for “ACGCTATTTAAACTGCTAAACGCTACTCTTTTTGTCCCATCGGAGTCACCTAGTGCAG” was 9020 fluorescence intensity (a.u.).

For the sequence “ATGGTGTTCCCGCTCCCGCGCCCGCCGTGGCGCCGGCGCCCGGAGTCACCTAGTGCAG”, the binding signal was 9180 fluorescence intensity (a.u.). The result for “CCGCCACTCTTTTTTTTTTTCTCCCGCGAAAATCACGTGACGGAGTCACCTAGTGCAG” reads 11000 fluorescence intensity (a.u.); that for “CCCGCGCCGCCACCCCACCCCACCCCACCCCACGCCGTCTCGGAGTCACCTAGTGCAG”, 9140 fluorescence intensity (a.u.); that for “AATAATGGCTTTCGTTGTCCTTGTCACATCATAAACTTCTCGGAGTCACCTAGTGCAG”, 9720 fluorescence intensity (a.u.). The result for “GGTTGGGTGGAGGGTATTACAGTCTTTTTGCTTTTGTATTCGGAGTCACCTAGTGCAG” reads 36600 fluorescence intensity (a.u.); that for “TAATTACAACTCTTCGTTTTTTTATATTTGCATAAATTTTCGGAGTCACCTAGTGCAG”, 10100 fluorescence intensity (a.u.); that for “TGGTTATGGTATGGTATGTTCCTGCAGTTATGCCGATCCCCGGAGTCACCTAGTGCAG”, 8620 fluorescence intensity (a.u.).

Regarding “AGGCTCTTAATTCGTATTTTCCCATTCACCTAACAGAAATCGGAGTCACCTAGTGCAG”, the binding signal was 8740 fluorescence intensity (a.u.). For the sequence “AATAAGACGAACGGTCAAATATTTTTTAAAAAGTCAACGGCGGAGTCACCTAGTGCAG”, the binding signal is 10300 fluorescence intensity (a.u.). The result for “CAGTTTTTACTTCAGTACGTCATTATCTAAGTTTCTTTACCGGAGTCACCTAGTGCAG” reads 8240 fluorescence intensity (a.u.); that for “CAGCCTTCCTGTCCACCTGCTGCTGCACGCCGCCGCCGAGCGGAGTCACCTAGTGCAG”, 8130 fluorescence intensity (a.u.).

Consider “CTCATCGCCTGTCCTATATTGCCACCGCCGTTGTCATGTGCGGAGTCACCTAGTGCAG”, for which the binding signal is 8590 fluorescence intensity (a.u.). On to “ATAATTTTTTTCCTTTCCATATGCTCGCTCCAAACCACTCCGGAGTCACCTAGTGCAG”, for which the binding signal was 11500 fluorescence intensity (a.u.). Consider “AGCAAGCTACCACCGCAGCCCAGCTCGAGGCCACCACCACCGGAGTCACCTAGTGCAG”, for which the binding signal was 8130 fluorescence intensity (a.u.). With “GTAGGGGTCTTATTTTCGCAGGCGGACATGACACTTAGAGCGGAGTCACCTAGTGCAG”, the binding signal is 8620 fluorescence intensity (a.u.). For “TGCGTACATGTGAGAGGATTCGGTTGACCTCCATTTCACGCGGAGTCACCTAGTGCAG”, the binding signal is 8570 fluorescence intensity (a.u.). The result for “ACCTGGTTCATTGCTTTACCGATGCTTCCTTATAAAATTACGGAGTCACCTAGTGCAG” reads 9110 fluorescence intensity (a.u.); that for “GGTGACAATCTTTTTTTTCTTCTTCTAAATGTTACAGTACCGGAGTCACCTAGTGCAG”, 8350 fluorescence intensity (a.u.).

As to “TAATGTATTCCGGCAAATGAATATGTTGTTTGACTTTTTTCGGAGTCACCTAGTGCAG”, the binding signal was 10300 fluorescence intensity (a.u.).

Take “TCTTCTCACTCTAATCAAATCTCTCTCTCTCTCTCTCTCTCGGAGTCACCTAGTGCAG”: the binding signal was 8280 fluorescence intensity (a.u.).

Turning to “AACTTAAAGCAGTTTGACTTTGACTAAAGTCAAAACGTCTCGGAGTCACCTAGTGCAG”, the binding signal was 8510 fluorescence intensity (a.u.).

Take “CCACGCCGCCCCGCCCGCCGCCGCGACCACCCGTTCCACCCGGAGTCACCTAGTGCAG”: the binding signal is 8630 fluorescence intensity (a.u.).

For “GCCAGTGTCTTTCTCTACAAGAAATTCCTCGGTTTCCACGCGGAGTCACCTAGTGCAG”, the binding signal was 9520 fluorescence intensity (a.u.). The value for “ACCATCCATCCAGCCAGCCAGCCAGCCACATCATATGTCCCGGAGTCACCTAGTGCAG” was 9280 fluorescence intensity (a.u.).

With “TATCCGTATCCAACGTTTGACCGTTCATCTTATCTGAAAACGGAGTCACCTAGTGCAG”, the binding signal is 8840 fluorescence intensity (a.u.). The value for “CTCTCCTCTCGTCCCGCGCCTCGGCCGCCGTCTGATTCCGCGGAGTCACCTAGTGCAG” was 9840 fluorescence intensity (a.u.); that for “TATCGGAGTAGGCCTACTGGGCCAATTGGGTGGGCTTTTTCGGAGTCACCTAGTGCAG” was 10300 fluorescence intensity (a.u.). “ACCATCTCTAGAACTTTCCATCTCGCCTCCGCCTCCGCCTCGGAGTCACCTAGTGCAG”: the binding signal is 9460 fluorescence intensity (a.u.).

For the sequence “GACATCCACCCCAGCGATGCTGCTCTACGCCGCCCTGTTCCGGAGTCACCTAGTGCAG”, the binding signal is 12400 fluorescence intensity (a.u.). Take “CTAGCTGTTCCCAAGTCCTCCGTCTCGTTTTCCGCGCAACCGGAGTCACCTAGTGCAG”: the binding signal was 12100 fluorescence intensity (a.u.). The value for “AACCAATTCGCTTCAACTTTAGTCACTTGATTTGCTTTATCGGAGTCACCTAGTGCAG” was 9570 fluorescence intensity (a.u.).

Values taken from article PMC7819943, “Rice protein-binding microarrays: a tool to detect cis-acting elements near promoter regions in rice”.
